No constants are given. Whether binding was seen depends on the method and setting. Some results given as binding are weak or reduced against the parent protein; the word gives no strength. For some assays here: Tags and fused reporters may be left off the sequences shown.
B1: Ies1 (protein, UniProt P43579 1-692)
chain: MGKRVYDPIHDTFQLREDNSDETKADSPMQSVKSGSQEEASPSSIQSETETVTTKSIPVIHEIEIDDKNDDDSTQSEEENTNILLNFEPSTVPEATGASTATGPVTTNTVRRKPKESNASKYNRHLKKPDGEPFNRKDIQFSFMQELLMDKRQIFTNVLKPLYKNSIVPINIDGDKLSINVTDKEYDARTFVFNDKLTFAQLYVLTIATSIKCSKILRDKLLLDQQVAFSTCVLALLVNIGRLNTTINFYLEMTSQLRTFHSVPVLQLHANDPKLLQDTPRLKSILKNLPWGNEQLSLMETYKKVDQNDGEVDTVNKFNIINMLFSICDNSGLIDKRFLSKYVEVESKAQEQDMVDEQNEVKETEAENEKQESKAAYATTLFDILDYSKYEPKDRSNILIWLLYIHLETNLSQEEVEESVRFFNGLEDGAPAGKFILRCTERSYDTDPEDELEFGANQRIKRREFMSKMEEGRKRERTNVTEVKKPSIGGDKSEEDGEGEDDKSEETVEETRSLLTPTPILESSSPMTLNRKKVTPQLPKVTPAAPTETEEEITSAAIIDKNDLNLTPLKKYNSSATVNKVDKLISLDLNKHVSENGKTQEEFLADLKKSQVPNRLKRRDIGLIKIFNEFEDIPVASVLGIRGKKRKKFKDNLLGFETDFMKNLGASKKVLLNKIERAEIDDEEATAMFKLE
B2: Ies6 (protein, UniProt P32617 1-166)
chain: MSGSRGNSSNSSVSNNSNNNNNNDGGDERLLFLRSVGERNEIGFPSRFKSAHYKKPTRRHKSARQLISDENKRINALLTKANKAAESSTAARRLVPKATYFSVEAPPSIRPAKKYCDVTGLKGFYKSPTNNIRYHNAEIYQLIVKPMAPGVDQEYLKLRGANFVLK
B3: Ies3 (protein, UniProt Q12345 1-250)
chain: MKFEDLLATNKQVQFAHAATQHYKSVKTPDFLEKDPHHKKFHNADGLNQQGSSTPSTATDANAASTASTHTNTTTFKRHIVAVDDISKMNYEMIKNSPGNVITNANQDEIDISTLKTRLYKDNLYAMNDNFLQAVNDQIVTLNAAEQDQETEDPDLSDDEKIDILTKIQENLLEEYQKLSQKERKWFILKELLLDANVELDLFSNRGRKASHPIAFGAVAIPTNVNANSLAFNRTKRRKINKNGLLENIL
B4: Ies4 (protein, UniProt Q08561 1-116)
chain: MSQESSVLSESQEQLANNPKIEDTSPPSANSRDNSKPVLPWDYKNKAIEIKSFSGYKVNFTGWIRRDVREERQRGSEFTASDVKGSDDKATRKKEPADEDPEVKQLEKEGEDGLDS
B5: Ies2 (protein, UniProt P40154 1-320)
chain: MDSEASDIEAELSDSVSAGGEEYIDDDDYTEDIDDQIVTAKSSRRTARRSVPKGVRTSKRIRDKELSVEVDEDYDEEEDVLSPSKKRHLHTRSMDKRQVAATASEKSDIGDSKGNDGEIEDGILEEEESLEKELNRGGGKEVEKSEESYYAQNDVGQKGEEEQDGESGGYEDNEPSISKESDELVSVVNGNGNEEDDEVEATKENTTDSTRSTTTRSKMLLDLLEDGGSKKKLTDEEIQLRRAENARKRKNLSEKRLEEEKQDTINKLLKKRAGKSRSHLPNDDEKNDGSSSFVKPRRPYNSEGMTRILRRYEEDLFCTF
B6: Nhp10 (protein, UniProt Q03435 1-203)
chain: MSVEEKKRRLEELKDQNVVLGLAIQRSRLSVKRLKLEYGVLLERLESRIELDPELNCEDPLPTLASFKQELLTKPFRKSKTKRHKVKERDPNMPKRPTNAYLLYCEMNKERIRQNGSLDVTRDLAEGWKNLNEQDRKPYYKLYSEDRERYQMEMEIYNKKISNIDADDDKEENEQKIKNNEEGSSTKVADSKGGEDGSLVSSN
B7: Arp5-His (protein, UniProt P53946 1-755)
chain: MSSRDASLTPLKAVVIDDPPLRQTPEPFDEQSAYNPQSPIAIDFGSSKLRAGFVNHATPTHIFPNALTKFRDRKLNKNFTFVGNDTLLDQAVRSQSRSPFDGPFVTNWNLTEEILDYTFHHLGVVPDNGIPNPILLTERLATVQSQRTNWYQILFETYNVPGVTFGIDSLFSFYNYNPSGNKTGLVISCGHEDTNVIPVVDGAGILTDAKRINWGGHQAVDYLNDLMALKYPYFPTKMSYLQYETMYKDYCYVSRNYDEDIEKILTLENLDTNDVVVEAPFTEVLQPQKTEEELRIQAEKRKETGKRLQEQARLKRMEKLVQKQEEFEYFSKVRDQLIDEPKKKVLSVLQNAGFDDERDFKKYLHSLEQSLKKAQMVEAEDDSHLDEMNEDKTAQKFDLLDIADEDLNEDQIKEKRKQRFLKASQDARQKAKEEKERVAKEEEEKKLKEQQWRETDLNGWIKDKRLKLNKLIKRRKEKLKLRDEMKDRKSQVSQNRMKNLASLAEDNVKQGAKRNRHQATIDNDPNDTFGANDEDWLIYTDITQNPEAFEEALEYEYKDIVELERLLLEHDPNFTEEDTLEAQYDWRNSILHLFLRGPRPHDSENIHEQHQMHLNVERIRVPEVIFQPTMGGQDQAGICELSETILLKKFGSQPGKLSQTSIDMVNNVLITGGNAKVPGLKERIVKEFTGFLPTGTNITVNMSSDPSLDAWKGMAALARNEEQYRKTVISKKEYEEYGPEYIKEHKLGNTKYFED
B8: Ies5 (protein, UniProt P40060 1-125)
chain: MPSKDPESVIDKEIRKISARNDELIKQDGTLKREYTTLLRKVSSVITVLNSIDDADTGSAETELPRLISQATVEKVPELKWYNDQISLITEKLEDDEDIEVPEELMDAYTLYKETPLLYNDTHTP

Chains of the proteins cited; added tags and fusions are not shown. Lines headed by an entry give the natural chain unless they say otherwise; changes in a name come on top. Residues count along the entry.
UniProt P53115: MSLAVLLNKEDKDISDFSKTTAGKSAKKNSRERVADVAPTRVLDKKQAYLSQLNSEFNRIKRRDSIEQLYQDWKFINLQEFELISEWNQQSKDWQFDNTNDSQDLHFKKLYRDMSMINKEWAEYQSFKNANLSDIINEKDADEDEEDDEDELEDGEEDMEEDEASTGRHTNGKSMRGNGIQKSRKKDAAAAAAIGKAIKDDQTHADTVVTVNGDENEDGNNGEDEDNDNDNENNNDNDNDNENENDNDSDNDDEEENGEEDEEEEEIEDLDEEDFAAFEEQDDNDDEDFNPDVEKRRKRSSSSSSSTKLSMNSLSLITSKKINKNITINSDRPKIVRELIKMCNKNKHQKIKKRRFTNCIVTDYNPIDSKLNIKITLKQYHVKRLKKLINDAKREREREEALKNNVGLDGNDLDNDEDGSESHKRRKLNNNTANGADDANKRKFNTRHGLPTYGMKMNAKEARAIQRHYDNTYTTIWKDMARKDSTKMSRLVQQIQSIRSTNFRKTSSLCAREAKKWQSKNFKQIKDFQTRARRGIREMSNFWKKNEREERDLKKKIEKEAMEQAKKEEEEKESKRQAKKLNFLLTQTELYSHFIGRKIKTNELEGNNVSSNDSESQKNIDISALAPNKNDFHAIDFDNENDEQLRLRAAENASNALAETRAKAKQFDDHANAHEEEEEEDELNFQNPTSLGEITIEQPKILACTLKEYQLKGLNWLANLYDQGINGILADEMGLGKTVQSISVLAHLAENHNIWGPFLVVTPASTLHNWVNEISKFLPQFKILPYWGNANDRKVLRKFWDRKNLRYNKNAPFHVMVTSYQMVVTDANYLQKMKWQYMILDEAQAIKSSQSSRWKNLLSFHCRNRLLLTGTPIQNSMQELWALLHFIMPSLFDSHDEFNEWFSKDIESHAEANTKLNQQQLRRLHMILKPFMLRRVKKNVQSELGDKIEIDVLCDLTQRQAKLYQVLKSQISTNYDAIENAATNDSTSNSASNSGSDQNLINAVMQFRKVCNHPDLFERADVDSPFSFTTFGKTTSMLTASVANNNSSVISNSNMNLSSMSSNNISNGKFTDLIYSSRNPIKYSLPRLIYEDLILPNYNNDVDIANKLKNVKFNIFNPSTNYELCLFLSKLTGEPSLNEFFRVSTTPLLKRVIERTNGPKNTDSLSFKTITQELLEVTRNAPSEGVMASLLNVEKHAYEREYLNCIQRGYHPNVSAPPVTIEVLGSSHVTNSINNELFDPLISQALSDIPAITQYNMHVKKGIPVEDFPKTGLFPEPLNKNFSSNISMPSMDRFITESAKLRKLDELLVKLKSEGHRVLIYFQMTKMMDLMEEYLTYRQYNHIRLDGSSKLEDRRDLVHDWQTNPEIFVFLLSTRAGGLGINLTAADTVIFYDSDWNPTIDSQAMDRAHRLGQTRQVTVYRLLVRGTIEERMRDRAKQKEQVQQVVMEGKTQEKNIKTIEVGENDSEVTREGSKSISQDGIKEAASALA
Ino80^ΔN (2xFlag), Ino80 ATPase lacking residues 1-461: residues 462-1489 of P53115
UniProt P35189: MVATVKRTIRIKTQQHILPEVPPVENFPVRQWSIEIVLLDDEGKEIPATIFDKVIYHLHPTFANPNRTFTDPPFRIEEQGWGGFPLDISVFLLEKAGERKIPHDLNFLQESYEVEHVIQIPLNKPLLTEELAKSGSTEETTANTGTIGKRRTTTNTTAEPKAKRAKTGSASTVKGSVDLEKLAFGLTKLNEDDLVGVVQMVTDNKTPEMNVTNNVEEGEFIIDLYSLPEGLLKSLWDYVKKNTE

Tests used:
[1] = biological target: Ino80 (2xFlag), main ATPase subunit of the S. cerevisiae INO80 complex (S. cerevisiae) (UniProt P53115); assay: co-purification
[2] = biological target: Ino80^ΔN (2xFlag), Ino80 ATPase lacking residues 1-461 (S. cerevisiae) (UniProt P53115); assay: co-purification

Row | Molecule | binding [1] | binding [2]
1 | Taf14 (from UniProt P35189 1-244) | binds | no binding
2 | B1 | binds | no binding
3 | B2 | binds | 
4 | B3 | binds | no binding
5 | B4 | binds | 
6 | B5 | binds | 
7 | B6 | binds | no binding
8 | B7 | binds | 
9 | B8 | binds | no binding

Reference: doi:10.1101/2020.02.28.969618
